Reference: patent US4377587A, “Arylamine derivatives and use thereof as microbicides” (Ciba-Geigy Corporation, priority 1980, dated 1983)
Some results were stated once for a whole list of compounds, not compound by compound.

System: Phytophthora infestans
Format: in vivo, Phytophthora infestans (on tomato plants)
Conditions: tomato, spray 0.06% active ingredient, infested after 24 hours, evaluated after 5 days at 20° C.

SMILES	fungus attack compared with untreated control plants (100% attack), residual-protective
CCOCC(=O)N(c1cccc([N+](=O)[O-])c1C)C(C)C(=O)OCC (stereo not drawn) [Compound 105]	less than 10%
COCC(=O)N(c1ccc([N+](=O)[O-])cc1C)C(C)C(=O)OC (stereo not drawn) [Compound 103]	less than 10%
COCC(=O)N(c1cccc([N+](=O)[O-])c1F)C(C)C(=O)OC (stereo not drawn) [Compound 106]	less than 10%
CCOCC(=O)N(c1cccc([N+](=O)[O-])c1C)C(C)C(=O)OC (stereo not drawn) [Compound 104]	less than 10%
CCOCC(=O)N(c1c(Cl)ccc([N+](=O)[O-])c1C)C(C)C(=O)OC (stereo not drawn) [Compound 107]	less than 10%
COCC(=O)N(c1cccc([N+](=O)[O-])c1C)C(C)C(=O)OC (stereo not drawn) [Compound 102]	less than 10%
